PubChem BioAssay AID1224830 | NIAID | 2016
Purpose: 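Regulators of TLR4 signalling towards TNF-alpha in macrophage-like cells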 (primary screen). System: human THP-1 monocytic leukaemia cells, TNF dual-luciferase reporter clone, PMA-differentiated to macrophage-like cells. Reagent: siRNA pool against human genes, 50 nM. Time to read-out: LPS for 4 h, given about 3 days after siRNA transfection. Challenge: bacterial LPS (TLR4 ligand), 10 ng/ml. Measured: 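TNF firefly reporter luminescence divided by renilla, normalised to the plate median, then turned into a robust z-score for each replicate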. Reading the numbers: TNF reporter robust z-score: higher = stronger TNF reporter response to LPS. Call rule: 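a well is active when its z-score exceeds 2.8 or falls below -1.5; control wells carry no call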.
The whole screen tested about 18,000 reagents; below is a random part of them. In the full data, about 2,900 (16%) were called active. 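Calls are made per well; low scores hint the gene aids the LPS response, high scores that it dampens it.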 A number with no mark means an inactive call. Repeated entries: four replicate wells of each siRNA pool.

gene symbol	TNF reporter robust z-score
HTR4	-0.32
HTR4	-0.46
HTR4	-0.23
HTR4	0.16
RAB3IP	0.64
RAB3IP	0.86
RAB3IP	-0.27
RAB3IP	0.03
PHLDA1	-0.38
PHLDA1	0.68
PHLDA1	2.95 (active)
PHLDA1	0.65
NOXO1	0.29
NOXO1	0.13
NOXO1	-0.12
NOXO1	0.23
MTMR3	1.25
MTMR3	4.2 (active)
MTMR3	0.98
MTMR3	1
GOLGA5	-0.03
GOLGA5	0.08
GOLGA5	0.98
GOLGA5	0.53
SIVA1	1.94
SIVA1	3.13 (active)
SIVA1	3.03 (active)
SIVA1	1.65
SLC60A1	-0.6
SLC60A1	0.24
SLC60A1	-1.17
SLC60A1	0.46
HMG20B	0.98
HMG20B	1.9
HMG20B	1.58
HMG20B	0.97
CAND2	-0.73
CAND2	1.13
CAND2	1.2
CAND2	1.31
SCYL3	1.17
SCYL3	2.16
SCYL3	-0.19
SCYL3	-0.72
CDC42EP4	-0.27
CDC42EP4	-0.37
CDC42EP4	0.08
CDC42EP4	0.18
FBXO32	-0.78
FBXO32	0.34
FBXO32	-1.8 (active)
FBXO32	-0.35
KDR	-0.18
KDR	1.12
KDR	2.5
KDR	-0.43
DTX1	-1.3
DTX1	-2.46 (active)
DTX1	-0.9
DTX1	-1.51 (active)
APOO	-0.93
APOO	-0.57
APOO	-0.21
APOO	-0.85
PCCB	-1.07
PCCB	-0.98
PCCB	0.6
PCCB	-0.21
APBB1	-0.71
APBB1	-0.39
APBB1	-0.05
APBB1	0.35
OR10R2	0.1
OR10R2	0.17
OR10R2	0.57
OR10R2	-0.12
PNCK	0.18
PNCK	-1.58 (active)
PNCK	-0.83
PNCK	-0.86
TRIB1	0.4
TRIB1	-0.27
TRIB1	-0.22
COX14	-1.83 (active)
COX14	-0.6
COX14	-1.29
COX14	-1.07
TBC1D5	-1.38
TBC1D5	-1.27
TBC1D5	-1.12
TBC1D5	-2.04 (active)
CATSPERT	-0.01
CATSPERT	-0.35
CATSPERT	-0.62
CATSPERT	-1.18
VWA1	-1.24
VWA1	-0.99
VWA1	-1.16
VWA1	-1.1
ETFRF1	1.82
ETFRF1	1.4
ETFRF1	1.52
ETFRF1	0.67
PHF21A	-1.11
PHF21A	-0.31
PHF21A	-1.32
PHF21A	-1.53 (active)
LY75	0.08
LY75	-0.16
LY75	0.18
LY75	1.32
